Test results published in article PMC9306950 (Clinical Pharmacology in Drug Development, 2022).

Experiments:
[1] = concomitant roxadustat vs statin alone
clinical = conditions: human, plasma, oral, 40 mg

CC(C)c1c(C(=O)Nc2ccccc2)c(-c2ccccc2)c(-c2ccc(F)cc2)n1CC[C@@H](O)C[C@@H](O)CC(=O)O [Atorvastatin]
CL/F lower in the presence of roxadustat [1]: 50% | AUC(0-inf) (clinical): 0.0941 µg·h/mL | Cmax (clinical): 0.0153 µg/mL | Tmax (clinical): 54 min
